# Measured values as given in PubChem BioAssay AID493014 (National Center for Advancing Translational Sciences (NCATS), 2011).
# In all, about 340,000 compounds went through this assay and about 170 (0.05%) were called active. This list was built around the results that the source calls inconclusive (neither active nor inactive); the mix of calls is not that of the screen. Calls come from the whole dose curve; as a rule, active = well fitted inhibition curve with a large enough effect in the signal ratio, with a control signal flat (not every such curve was filed as active); inconclusive = small, poorly fitted or top-dose-only effect, or effect the other way, or a change in a side signal; inactive = flat fitted curve, though single readings scatter; the % refers to the signal ratio. A potency beside an inconclusive call is a rough fit, not a confirmed value.
# Test: qHTS Assay to Find Inhibitors of Chronic Active B-Cell Receptor Signaling;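 for activity change, negative = inhibition: plate controls were basal doxycycline-induced cells for no effect and cells given 10 µM MG132 for full effect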
# Details: ABC-DLBCL IkBa-CBG/CBR reporter, luminescence ratio (green luciferase fused to IkBa over red control in TMD8 lymphoma cells), 4 h; activity change, negative = inhibition: at 46.1 µM (top of the series) unless noted
# Summary of the method: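 Cell line TMD8 (human ABC DLBCL), stably expressing tet-inducible CBG68-IkBa fusion and CBR; IMDM/0.5% FBS; cpd up to 46 uM; dox induction, 4 h, 37C/5% CO2; dual luminescence; green/red ratio; MG132 control.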
# Potency is the fitted concentration of half-maximal effect.
Structure (SMILES),"activity change, negative = inhibition",Potency
COc1cc2c(cc1NC(=O)CC1SC(N3CCCC3)=NC1=O)oc1ccccc12 (configuration not stated),inconclusive: -1.99%,–
CCOCCCn1c(=S)[nH]c2cc(C(=O)NCc3ccc(F)cc3)ccc2c1=O,inactive: 3.01%,–
CC(Cl)C(=O)c1ccc2c(c1)CCN2C(=O)C1CC1 (configuration not stated),inconclusive: 2.68%,–
Cc1cccc(NS(=O)(=O)c2cccc(C(=O)N3CCCCCC3)c2)c1,inconclusive: 3.27%,–
Cc1cc(C)n(C(=O)CNC(=O)c2cccc(Cl)c2)n1,inconclusive: 12.8%,–
CCCSc1ccc(C(=O)Nc2ccc(F)cc2F)cn1,–,"inconclusive: 7.94 µM [falling, partial curve, poor fit]"
O=C(/C=N/O)Nc1ccccc1C(=O)O,–,"inconclusive: 25.9 µM [falling, partial curve, poor fit]"
Cc1nc2ccc(NC(=O)c3ccc(S(=O)(=O)N(C)C)cc3)cc2s1,inactive: 5.52%,–
CN(c1cccc(NC(=O)COc2ccc(Cl)cc2Cl)c1)S(C)(=O)=O,inactive: 15.2%,–
CCOC(=O)c1ccc(Nc2cnc3ccccc3n2)cc1,–,"inconclusive: 1.12 µM [falling, partial curve, poor fit]"
C=C1CCC[C@]2(C)C[C@H]3OC(=O)C(CN(C)CC(OC)OC)[C@H]3CC12 (some centres not stated),–,"inconclusive: 20 µM [falling, single point]"
O=C(NCC1CCCO1)c1ccc2nc(N3CCCCC3)sc2c1 (configuration not stated),inconclusive: -2.15%,–
CN(C1CCCCC1)S(=O)(=O)c1ccc(C(=O)Nc2sc3c(c2C(N)=O)CC(C)(C)NC3(C)C)cc1,inactive,–
O=C(C[C@H]1C/C=C\C[C@H](NC(=O)OCC2c3ccccc3-c3ccccc32)C(=O)OC[C@H](Cc2ccccc2)NC1=O)N[C@H](CO)Cc1ccccc1,inactive: 1.45%,–
C[C@]12CCC(=O)C[C@@H]1CC[C@@H]1[C@@H]2CC[C@]2(C)[C@@H](C(=O)COC(=O)CCC(=O)O)CC[C@@H]12,inactive,–
COc1ccc(NC(=S)Nc2ccc(OC(F)F)cc2)cn1,inconclusive: 2.03%,–
CCCNC(=O)COC(=O)c1n[nH]c2ccccc12,inconclusive: 11%,–
Cc1nc(C)c(-c2nnc(-c3ccccc3Cl)o2)cc1C(=O)NN,inconclusive: -19.3%,–
O=C(O)c1ccc(CN2C(=O)c3ccc(C(=O)O)cc3C2=O)cc1,inactive: 2.32%,–
CCC1CCCCN1CCCNC(=O)c1cn(CC)c2ccc(S(=O)(=O)N3CCc4ccccc4C3)cc2c1=O (configuration not stated),inactive: -0.335%,–
N#CCSc1ccccc1NC(=O)COC(=O)CCNC(=O)c1ccc([N+](=O)[O-])cc1,inactive: -18.7%,–
COC(=O)c1cc2c(N)c(C(=O)c3ccccc3)sc2nc1C(OC)OC,–,"inconclusive: 0.631 µM [rising, full curve, poor fit]"

# Part of the list above in order of length of the SMILES, falling:
Structure (SMILES),"activity change, negative = inhibition",Potency
COc1cc2c(cc1NC(=O)CC1SC(N3CCCC3)=NC1=O)oc1ccccc12 (configuration not stated),inconclusive: -1.99%,–
Cc1nc2ccc(NC(=O)c3ccc(S(=O)(=O)N(C)C)cc3)cc2s1,inactive: 5.52%,–
CCCNC(=O)COC(=O)c1n[nH]c2ccccc12,inconclusive: 11%,–
